Four substances from paper PMC12092681 can be followed below.

Sequences of proteins named here, by UniProt entry; tags and fusion partners are left off. Residues count along the entry.
UniProt P06733: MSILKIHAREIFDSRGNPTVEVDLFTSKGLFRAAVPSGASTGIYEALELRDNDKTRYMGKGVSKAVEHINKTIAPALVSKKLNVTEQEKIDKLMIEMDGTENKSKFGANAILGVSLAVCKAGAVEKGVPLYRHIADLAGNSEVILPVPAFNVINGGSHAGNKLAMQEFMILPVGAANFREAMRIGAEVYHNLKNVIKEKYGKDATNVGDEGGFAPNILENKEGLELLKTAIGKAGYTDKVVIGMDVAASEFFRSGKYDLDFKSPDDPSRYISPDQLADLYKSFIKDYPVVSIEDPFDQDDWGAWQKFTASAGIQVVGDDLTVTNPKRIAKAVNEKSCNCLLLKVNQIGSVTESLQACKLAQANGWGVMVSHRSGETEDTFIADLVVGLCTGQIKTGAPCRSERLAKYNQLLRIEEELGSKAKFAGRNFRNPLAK
UniProt Q04721, residues 26-2471: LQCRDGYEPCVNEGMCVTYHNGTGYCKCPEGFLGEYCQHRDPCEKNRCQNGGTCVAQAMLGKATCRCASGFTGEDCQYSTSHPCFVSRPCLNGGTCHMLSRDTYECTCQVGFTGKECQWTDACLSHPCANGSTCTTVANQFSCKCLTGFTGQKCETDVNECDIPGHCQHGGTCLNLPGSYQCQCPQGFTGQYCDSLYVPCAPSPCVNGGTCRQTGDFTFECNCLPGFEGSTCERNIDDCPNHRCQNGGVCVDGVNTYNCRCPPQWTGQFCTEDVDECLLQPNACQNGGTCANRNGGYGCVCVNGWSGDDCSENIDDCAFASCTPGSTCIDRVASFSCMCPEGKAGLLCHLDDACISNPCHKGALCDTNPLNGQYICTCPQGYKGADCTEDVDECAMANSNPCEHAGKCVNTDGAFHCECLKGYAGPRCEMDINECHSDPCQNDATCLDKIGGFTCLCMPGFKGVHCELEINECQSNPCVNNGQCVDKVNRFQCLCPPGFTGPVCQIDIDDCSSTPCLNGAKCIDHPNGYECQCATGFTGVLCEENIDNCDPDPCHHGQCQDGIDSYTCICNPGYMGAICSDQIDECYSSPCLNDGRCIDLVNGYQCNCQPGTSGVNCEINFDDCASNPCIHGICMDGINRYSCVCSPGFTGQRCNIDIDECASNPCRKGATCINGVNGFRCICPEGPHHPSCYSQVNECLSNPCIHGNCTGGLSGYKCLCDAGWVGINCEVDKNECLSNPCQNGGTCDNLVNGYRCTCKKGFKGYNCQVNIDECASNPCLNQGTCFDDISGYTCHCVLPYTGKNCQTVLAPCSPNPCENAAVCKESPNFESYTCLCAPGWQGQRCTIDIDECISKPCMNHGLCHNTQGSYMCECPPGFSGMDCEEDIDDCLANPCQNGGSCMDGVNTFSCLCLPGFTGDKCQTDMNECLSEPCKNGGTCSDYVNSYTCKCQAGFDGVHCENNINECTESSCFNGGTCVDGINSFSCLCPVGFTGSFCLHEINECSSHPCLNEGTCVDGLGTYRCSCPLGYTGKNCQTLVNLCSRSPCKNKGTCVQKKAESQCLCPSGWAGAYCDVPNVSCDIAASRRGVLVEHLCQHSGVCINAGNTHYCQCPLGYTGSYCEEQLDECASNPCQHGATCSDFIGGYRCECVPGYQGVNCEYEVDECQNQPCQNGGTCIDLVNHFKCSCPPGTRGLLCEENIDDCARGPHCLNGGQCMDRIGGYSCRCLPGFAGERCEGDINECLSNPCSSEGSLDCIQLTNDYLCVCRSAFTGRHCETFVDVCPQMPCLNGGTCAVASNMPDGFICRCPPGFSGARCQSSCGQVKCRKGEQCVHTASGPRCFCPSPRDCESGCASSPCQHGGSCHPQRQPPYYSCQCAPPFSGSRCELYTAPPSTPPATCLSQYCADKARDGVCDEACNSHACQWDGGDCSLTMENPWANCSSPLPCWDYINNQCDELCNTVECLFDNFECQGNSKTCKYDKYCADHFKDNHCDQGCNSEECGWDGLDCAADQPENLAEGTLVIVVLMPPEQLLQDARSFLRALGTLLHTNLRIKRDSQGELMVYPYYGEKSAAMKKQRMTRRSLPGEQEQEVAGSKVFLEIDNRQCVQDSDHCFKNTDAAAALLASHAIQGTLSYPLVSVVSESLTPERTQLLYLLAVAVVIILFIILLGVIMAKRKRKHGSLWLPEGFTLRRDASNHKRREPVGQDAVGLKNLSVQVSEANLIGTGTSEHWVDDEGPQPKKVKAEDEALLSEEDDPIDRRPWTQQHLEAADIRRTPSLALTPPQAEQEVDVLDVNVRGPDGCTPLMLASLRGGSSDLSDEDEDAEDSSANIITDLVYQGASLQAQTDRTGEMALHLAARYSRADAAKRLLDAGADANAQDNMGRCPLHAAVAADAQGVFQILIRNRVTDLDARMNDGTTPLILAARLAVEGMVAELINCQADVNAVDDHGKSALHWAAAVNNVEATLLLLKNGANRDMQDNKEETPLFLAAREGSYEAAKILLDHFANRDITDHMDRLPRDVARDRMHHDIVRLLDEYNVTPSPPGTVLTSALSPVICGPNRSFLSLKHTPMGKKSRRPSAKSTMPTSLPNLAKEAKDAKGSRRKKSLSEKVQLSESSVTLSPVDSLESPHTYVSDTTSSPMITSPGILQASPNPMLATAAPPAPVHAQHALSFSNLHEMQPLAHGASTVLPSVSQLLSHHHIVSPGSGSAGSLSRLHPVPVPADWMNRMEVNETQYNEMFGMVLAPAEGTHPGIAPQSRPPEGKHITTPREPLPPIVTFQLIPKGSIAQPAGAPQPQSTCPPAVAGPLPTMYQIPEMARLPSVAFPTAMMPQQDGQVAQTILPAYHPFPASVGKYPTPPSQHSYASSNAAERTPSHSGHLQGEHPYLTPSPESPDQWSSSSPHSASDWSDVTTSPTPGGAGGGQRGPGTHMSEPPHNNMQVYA
UniProt P14618: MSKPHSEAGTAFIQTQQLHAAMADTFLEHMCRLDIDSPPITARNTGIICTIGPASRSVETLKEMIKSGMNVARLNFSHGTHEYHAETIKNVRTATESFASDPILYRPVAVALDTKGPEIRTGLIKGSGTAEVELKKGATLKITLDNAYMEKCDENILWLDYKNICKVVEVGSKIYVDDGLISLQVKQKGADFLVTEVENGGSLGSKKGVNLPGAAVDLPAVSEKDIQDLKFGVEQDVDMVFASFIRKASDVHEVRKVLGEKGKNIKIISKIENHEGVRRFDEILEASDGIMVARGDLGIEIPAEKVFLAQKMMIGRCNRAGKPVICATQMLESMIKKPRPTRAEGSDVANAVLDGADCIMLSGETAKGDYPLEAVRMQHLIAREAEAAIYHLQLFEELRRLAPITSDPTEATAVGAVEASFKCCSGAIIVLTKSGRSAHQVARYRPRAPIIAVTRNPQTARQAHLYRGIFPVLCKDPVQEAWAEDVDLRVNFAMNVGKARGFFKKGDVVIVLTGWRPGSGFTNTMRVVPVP
UniProt Q99873: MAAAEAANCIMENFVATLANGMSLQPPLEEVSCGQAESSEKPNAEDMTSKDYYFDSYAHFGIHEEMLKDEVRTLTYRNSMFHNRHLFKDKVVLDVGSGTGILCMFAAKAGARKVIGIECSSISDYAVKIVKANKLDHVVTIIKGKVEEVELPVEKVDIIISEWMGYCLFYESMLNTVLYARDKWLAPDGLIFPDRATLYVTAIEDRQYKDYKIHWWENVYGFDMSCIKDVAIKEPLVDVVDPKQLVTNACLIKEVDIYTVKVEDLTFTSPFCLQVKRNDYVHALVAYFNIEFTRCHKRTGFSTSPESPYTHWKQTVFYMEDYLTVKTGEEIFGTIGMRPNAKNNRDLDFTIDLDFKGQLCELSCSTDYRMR

No constants are given. Whether binding was seen depends on the method and setting. Binding seen in cells or lysates may run through a third protein. Here binding means that the protein was enriched with, or labelled near, the bait; the list need not be complete. Where a sequence is shown, tags or fusion partners need not be part of it.

The assay has as its target T1, MYC-tagged NUSAP1 (nucleolar and spindle-associated protein 1), wild type, in HEK293FT cells (human) (UniProt Q9BXS6).
T1 sequence: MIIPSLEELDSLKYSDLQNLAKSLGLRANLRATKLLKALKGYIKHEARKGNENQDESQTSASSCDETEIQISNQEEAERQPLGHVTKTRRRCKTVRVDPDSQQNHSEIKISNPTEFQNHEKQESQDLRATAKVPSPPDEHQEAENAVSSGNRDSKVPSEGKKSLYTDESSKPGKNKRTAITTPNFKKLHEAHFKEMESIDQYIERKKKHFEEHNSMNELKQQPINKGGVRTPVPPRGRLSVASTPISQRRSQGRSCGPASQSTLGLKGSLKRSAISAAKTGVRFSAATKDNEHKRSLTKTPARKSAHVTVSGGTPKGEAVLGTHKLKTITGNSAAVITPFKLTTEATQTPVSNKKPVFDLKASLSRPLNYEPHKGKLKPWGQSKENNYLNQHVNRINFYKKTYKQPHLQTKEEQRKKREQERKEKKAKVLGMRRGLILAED
Kind of assay: affinity purification with mass spectrometry; MYC-NUSAP1 expressed in HEK293FT cells, precipitated with anti MYC Nanobody Magarose Beads at 4 °C overnight, bound proteins identified by LC-MS/MS.

As for “ENO1, endogenous in HEK293FT cells (from UniProt P06733 1-434) (enzyme)”, the binding result is listed as “binds”.

As for “Notch2, endogenous in HEK293FT cells (from UniProt Q04721 26-2471) (receptor)”, the binding result is listed as “binds”.

On to “PKM2, endogenous in HEK293FT cells (from UniProt P14618 1-531) (enzyme)”, for which the binding result is on record as “binds”.

On to “PRMT1, endogenous in HEK293FT cells (from UniProt Q99873 1-371) (enzyme)”, for which the binding result was “binds”.
